Patent publication US20260007643A1, “HIGHLY SOLUBLE FORMULATIONS OF HARMINE” (Reconnect Labs AG, priority 2022, published 2026)

Assay: Bitterness rating of formulations in 5 volunteers on a 0-10 numeric rating scale
Assay type: in vivo, Human
Details: Part 8, amount corresponding to 20 mg harmine freebase, sublingual area

Compound | Bitterness rating, Severity
COc1ccc2c(c1)[nH]c1c(C)nccc12 [Harmine, 7-methoxy-1-methyl-9H-pyrido[3,4-b]-indole] | none to mild
Harmine hemifumarate | none to mild
